This passage reports binding results from article doi:10.1101/542795.

For this assay, the target named is HtsRC::V5::APEX1 (Drosophila melanogaster) (UniProt Q02645). Description: proximity ligation.

No constants are given. Whether binding was seen depends on the method and setting. In cells and extracts the contact can be indirect. Some results given as binding are weak or reduced against the parent protein; the word gives no strength. Sequences can lack the tags named with a protein.

B1: HtsRC::V5::APEX1 (protein, UniProt Q02645 659-1156)
chain: ALVSQLAQKYAFLYSPGQYMYACMKMAPLMHKVYVIHKVEPVSKHNYPPVNDGNMSIHHNESGAGFMAQESSVISSTPVRNALASVSLPEERNHSILGLSSTPYRTISHFGFNCPLITSPTILLHPEHRSIWQRVAEQREKVVSFIDLTTLSLDNRKLLNVVTSTHPTQCQSQSQSFISEKHIQLEVTPPKRKQRVYSATISSGLDDSLDELDSLMSGLAINMPRSREQDSGLYRSYTFLPSNHALPKDTDANNRDQTDRERPEAEQEESFHCAGDSGIGDSTGRRPRLATTSNDSSIQEAEAYTQGKHVKLTLSSSPTPTATQSPATIEILINVSLRNAECVQTVQTHEQEFRAKLERVIDEEIHYISQQLAFKQRQAELHEQQTTSRAPIATPSFTTMHPPAPASSSSMVHRSNSAPELCHTYSYVAVGDLSTKQDQASPQLPAEGEPLNDILSSLEKELERLLNSVVTAHMLHNKAIIHECRARFSQLADGIVSS
As for B1, the binding result is “binds”.
